Measurements from the supplement of paper PMC4604168 (melanoma cell lines).
The list shows a part of the results. Repeats are few or missing, and single values can be far off.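 Cells were imaged in 1,536-well plates, and nuclei stained with an antibody against cleaved PARP were counted against all DNA-stained nuclei to give the apoptosis fraction. Screening doses were chosen to leave most cells alive, and resting and induced cleaved-PARP levels differ strongly between cell lines.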

Columns and labels:
Experiment in all cases: cleaved PARP positive nuclei fraction relative to DMSO control; melanoma cells; higher = more apoptosis
Conditions in all cases: library dose: low library concentration; 72 h
501Mel = test system: 501Mel
A101D = test system: A101D
A2058 = test system: A2058
A375 = test system: A375
C32 = test system: C32
CBRC008 = test system: CBRC008 (line from a melanoma biopsy)
CBRC014 = test system: CBRC014 (line from a melanoma biopsy)
CBRC016 = test system: CBRC016 (line from a melanoma biopsy)
CBRC017 = test system: CBRC017 (line from a melanoma biopsy)

SMILES | cleaved PARP positive nuclei fraction (501Mel) [%] | cleaved PARP positive nuclei fraction (A101D) [%] | cleaved PARP positive nuclei fraction (A2058) [%] | cleaved PARP positive nuclei fraction (A375) [%] | cleaved PARP positive nuclei fraction (C32) [%] | cleaved PARP positive nuclei fraction (CBRC008) [%] | cleaved PARP positive nuclei fraction (CBRC014) [%] | cleaved PARP positive nuclei fraction (CBRC016) [%] | cleaved PARP positive nuclei fraction (CBRC017) [%]
Cc1ccc(Nc2nccc(N(C)c3ccc4c(C)n(C)nc4c3)n2)cc1S(N)(=O)=O [Pazopanib] + CC(=O)c1c(C)c2cnc(Nc3ccc(N4CCNCC4)cn3)nc2n(C2CCCC2)c1=O [palbociclib] (first compound 0.4 µM, partner dose 0.04 µM) | 226 | 56.9 | 78.6 | 186 | 91.8 | 48.2 | 156 | 92.1 | 114
CCCCCCCCCCCCCCCCCCOP(=O)([O-])OC1CC[N+](C)(C)CC1 [Perifosine] + C[C@@H](N)c1ccc(C(=O)Nc2ccnc3[nH]ccc23)cc1 [RKI983] (first compound 0.4 µM, partner dose 0.4 µM) | 76.8 | 131 | 285 | 421 | 170 | 94.2 | 115 | 174 | 88.5
COc1cc([C@@H]2c3cc4c(cc3[C@@H](O[C@@H]3O[C@@H]5CO[C@@H](C)O[C@H]5[C@H](O)[C@H]3O)[C@H]3COC(=O)[C@H]23)OCO4)cc(OC)c1O [etoposide] + NC1(c2ccc(-c3nc4ccn5c(=O)[nH]nc5c4cc3-c3ccccc3)cc2)CCC1 [MK2206] (first compound 0.02 µM, partner dose 0.4 µM) | 102 | 156 | 102 | 60.9 | 167 | 45.7 | 284 | 125 | 90.2
Cc1cc(Nc2cc(N3CCN(C)CC3)nc(Sc3ccc(NC(=O)C4CC4)cc3)n2)n[nH]1 [Tozasertib] + CCCCCCCCc1ccc(CCC(N)(CO)CO)cc1 [fingolimod] (first compound 0.006 µM, partner dose 2 µM) | 108 | 99.6 | 68.9 | 183 | 82.3 | 90.1 | 78 | 72 | 119
CC[C@]1(O)C[C@H]2CN(CCc3c([nH]c4ccccc34)[C@@](C(=O)OC)(c3cc4c(cc3OC)N(C=O)[C@H]3[C@@](O)(C(=O)OC)[C@H](OC(C)=O)[C@]5(CC)C=CCN6CC[C@]43[C@@H]65)C2)C1 [vincristine] + CCCCCCCCc1ccc(CCC(N)(CO)CO)cc1 [fingolimod] (first compound 0.0001 µM, partner dose 2 µM) | 124 | 280 | 1420 | 296 | 80.3 | 105 | 104 | 61.9 | 134
Cc1ccc(Nc2nccc(N(C)c3ccc4c(C)n(C)nc4c3)n2)cc1S(N)(=O)=O [Pazopanib] + Cn1nnc2c(C(N)=O)ncn2c1=O [temozolomide] (first compound 0.4 µM, partner dose 2 µM) | 115 | 46 | 151 | 128 | 69.5 | 403 | 114 | 91.1 | 140
O=C(/C=C/c1cccnc1)NCCCCC1CCN(C(=O)c2ccccc2)CC1 + COc1ccc(C2=N[C@@H](c3ccc(Cl)cc3)[C@@H](c3ccc(Cl)cc3)N2C(=O)N2CCNC(=O)C2)c(OC(C)C)c1 [Nutlin-3] (first compound 0.01 µM, partner dose 0.1 µM) | 63.7 | 139 | 60 | 59.3 | 214 | 2080 | 114 | 402 | 774
CCCCCCCCCCCCCCCCCCOP(=O)([O-])OC1CC[N+](C)(C)CC1 [Perifosine] + Nc1ncn([C@H]2C[C@H](O)[C@@H](CO)O2)c(=O)n1 [decitabine] (first compound 0.4 µM, partner dose 0.1 µM) | 70.2 | 98.7 | 100 | 254 | 81.2 | 224 | 97.4 | 237 | 114
Cc1cc(Nc2cc(N3CCN(C)CC3)nc(Sc3ccc(NC(=O)C4CC4)cc3)n2)n[nH]1 [Tozasertib] + Nc1cccc2c1CN(C1CCC(=O)NC1=O)C2=O [lenalidomide] (first compound 0.006 µM, partner dose 1 µM) | 122 | 93.3 | 243 | 126 | 89.6 | 206 | 93.3 | 89 | 157
Cc1cc(Nc2cc(N3CCN(C)CC3)nc(Sc3ccc(NC(=O)C4CC4)cc3)n2)n[nH]1 [Tozasertib] + CC(=O)c1c(C)c2cnc(Nc3ccc(N4CCNCC4)cn3)nc2n(C2CCCC2)c1=O [palbociclib] (first compound 0.006 µM, partner dose 0.04 µM) | 100 | 337 | 86.4 | 437 | 201 | 33.7 | 113 | 21.4 | 116
COc1cc([C@@H]2c3cc4c(cc3[C@@H](O[C@@H]3O[C@@H]5CO[C@@H](C)O[C@H]5[C@H](O)[C@H]3O)[C@H]3COC(=O)[C@H]23)OCO4)cc(OC)c1O [etoposide] + CC(=O)O[C@@]12CO[C@@H]1C[C@H](O)[C@@]1(C)C(=O)[C@H](O)C3=C(C)[C@@H](OC(=O)[C@H](O)[C@@H](NC(=O)OC(C)(C)C)c4ccccc4)C[C@@](O)([C@@H](OC(=O)c4ccccc4)[C@H]21)C3(C)C [Docetaxel] (first compound 0.02 µM, partner dose 0.0001 µM) | 130 | 247 | 3020 | 955 | 180 | 198 | 703 | 280 | 168
O=c1[nH]nc(Sc2ncc([N+](=O)[O-])s2)n1-c1ccc2c(c1)OCCO2 + Cn1c(=O)n(-c2ccc(C(C)(C)C#N)cc2)c2c3cc(-c4cnc5ccccc5c4)ccc3ncc21 [NVP-BEZ235] (first compound 0.2 µM, partner dose 0.004 µM) | 221 | 132 | 86.1 | 90.7 | 73.5 | 101 | 180 | 68.9 | 109
O=C(/C=C/c1cccnc1)NCCCCC1CCN(C(=O)c2ccccc2)CC1 + CCCCCCCCc1ccc(CCC(N)(CO)CO)cc1 [fingolimod] (first compound 0.01 µM, partner dose 2 µM) | 148 | 200 | 95.9 | 219 | 82.9 | 4030 | 109 | 797 | 527
Cc1cn(-c2cc(NC(=O)c3ccc(C)c(Nc4nccc(-c5cccnc5)n4)c3)cc(C(F)(F)F)c2)cn1 [nilotinib] + Cn1sc(=O)n(Cc2ccccc2)c1=O [TDZD-8] (first compound 0.2 µM, partner dose 0.4 µM) | 45.5 | 60.2 | 98.7 | 203 | 131 | 23.5 | 84.4 | 84.1 | 94.8
COc1cc([C@@H]2c3cc4c(cc3[C@@H](O[C@@H]3O[C@@H]5CO[C@@H](C)O[C@H]5[C@H](O)[C@H]3O)[C@H]3COC(=O)[C@H]23)OCO4)cc(OC)c1O [etoposide] + C=CCNC1=C2C[C@@H](C)C[C@H](OC)[C@H](O)[C@@H](C)/C=C(\C)[C@H](OC(N)=O)[C@@H](OC)/C=C\C=C(/C)C(=O)NC(=CC1=O)C2=O [Tanespimycin] (first compound 0.02 µM, partner dose 0.002 µM) | 77.7 | 50.3 | 165 | 49.3 | 106 | 78.3 | 95.1 | 97.9 | 118
Cc1ccc(Nc2nccc(N(C)c3ccc4c(C)n(C)nc4c3)n2)cc1S(N)(=O)=O [Pazopanib] + CC(=O)O[C@@]12CO[C@@H]1C[C@H](O)[C@@]1(C)C(=O)[C@H](O)C3=C(C)[C@@H](OC(=O)[C@H](O)[C@@H](NC(=O)OC(C)(C)C)c4ccccc4)C[C@@](O)([C@@H](OC(=O)c4ccccc4)[C@H]21)C3(C)C [Docetaxel] (first compound 0.4 µM, partner dose 0.0001 µM) | 91.9 | 66.5 | 2550 | 2320 | 77.3 | 292 | 139 | 211 | 167
Cc1cc(Nc2cc(N3CCN(C)CC3)nc(Sc3ccc(NC(=O)C4CC4)cc3)n2)n[nH]1 [Tozasertib] + CCN(CC)CCNC(=O)c1c(C)[nH]c(/C=C2\C(=O)Nc3ccc(F)cc32)c1C [sunitinib] (first compound 0.006 µM, partner dose 0.4 µM) | 164 | 43.8 | 40.4 | 85.7 | 89.4 | 69 | 80.1 | 118 | 96.2
CC[C@]1(O)C[C@H]2CN(CCc3c([nH]c4ccccc34)[C@@](C(=O)OC)(c3cc4c(cc3OC)N(C=O)[C@H]3[C@@](O)(C(=O)OC)[C@H](OC(C)=O)[C@]5(CC)C=CCN6CC[C@]43[C@@H]65)C2)C1 [vincristine] + C#Cc1cccc(Nc2ncnc3cc(OCCOC)c(OCCOC)cc23)c1 [erlotinib] (first compound 0.0001 µM, partner dose 0.8 µM) | 154 | 516 | 3140 | 584 | 90.4 | 255 | 113 | 177 | 115
N#CC[C@H](C1CCCC1)n1cc(-c2ncnc3[nH]ccc23)cn1 [ruxolitinib] + OCc1c[nH]c2ccccc12 [Indole-3-carbinol] (first compound 1 µM, partner dose 0.8 µM) | 72.6 | 83.6 | 57.4 | 56.8 | 65.3 | 107 | 86.1 | 206 | 73.3

Full records from above. Order of values: cleaved PARP positive nuclei fraction (501Mel) [%] | cleaved PARP positive nuclei fraction (A101D) [%] | cleaved PARP positive nuclei fraction (A2058) [%] | cleaved PARP positive nuclei fraction (A375) [%] | cleaved PARP positive nuclei fraction (C32) [%] | cleaved PARP positive nuclei fraction (CBRC008) [%] | cleaved PARP positive nuclei fraction (CBRC014) [%] | cleaved PARP positive nuclei fraction (CBRC016) [%] | cleaved PARP positive nuclei fraction (CBRC017) [%]
COc1cc([C@@H]2c3cc4c(cc3[C@@H](O[C@@H]3O[C@@H]5CO[C@@H](C)O[C@H]5[C@H](O)[C@H]3O)[C@H]3COC(=O)[C@H]23)OCO4)cc(OC)c1O [etoposide] + CC(=O)O[C@@]12CO[C@@H]1C[C@H](O)[C@@]1(C)C(=O)[C@H](O)C3=C(C)[C@@H](OC(=O)[C@H](O)[C@@H](NC(=O)OC(C)(C)C)c4ccccc4)C[C@@](O)([C@@H](OC(=O)c4ccccc4)[C@H]21)C3(C)C [Docetaxel] (first compound 0.02 µM, partner dose 0.0001 µM) reads 130 | 247 | 3020 | 955 | 180 | 198 | 703 | 280 | 168
COc1cc([C@@H]2c3cc4c(cc3[C@@H](O[C@@H]3O[C@@H]5CO[C@@H](C)O[C@H]5[C@H](O)[C@H]3O)[C@H]3COC(=O)[C@H]23)OCO4)cc(OC)c1O [etoposide] + NC1(c2ccc(-c3nc4ccn5c(=O)[nH]nc5c4cc3-c3ccccc3)cc2)CCC1 [MK2206] (first compound 0.02 µM, partner dose 0.4 µM) reads 102 | 156 | 102 | 60.9 | 167 | 45.7 | 284 | 125 | 90.2
